The assay has as its system BTK and AKT phosphorylation. Description: Inhibitor washout assay, Mino cells. To be noted: 1 h treatment, washes with PBS.

Molecules are shown by their SMILES. Structures were worked out from names or drawings and are uncertain.

Turning to `C=CC(=O)N1CCOc2ccc(-c3csc4c(=O)cc(N5CCOCC5)oc34)cc21`, the “AKT phosphorylation after inhibitor wash out” value is “retained inhibition of AKT phosphorylation” and the “BTK phosphorylation after inhibitor wash out” value was “retained inhibition of BTK phosphorylation”.

Values taken from paper PMC8760370, “Combinatorial inhibition of BTK, PI3K-AKT and BRD4-MYC as a strategy for treatment of mantle cell lymphoma” (Molecular Biomedicine, 2022).
